# According to PubChem BioAssay AID2685 (National Center for Advancing Translational Sciences (NCATS), 2010):
# This is one part of the list. Shown are side measurements of this screen, not its main read-out; they come without a call. The list favours compounds with an active or inconclusive main result. The note in brackets gives the kind of curve behind each potency; many fits are weak.
# Assay: qHTS Assay for Lipid Storage Modulators in Drosophila S3 Cells;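 as to cell number change: cells counted by Cell Tracker Red CMTPX staining in the red channel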
# Conditions: BODIPY lipid droplet fluorescence, 18-24 h; for cell number change: measured here: cell count max response, cells fed with added oleic acid
# In short: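 Drosophila S3 cells got compounds at several concentrations plus oleic acid (400 uM solution). Laser-scanning cytometry with 488 nm excitation read lipid droplets at 500-530 nm and cells at 575-640 nm. Percent activity was relative to 20 uM Triacsin C.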
# [1] = measured here: lipid fluorescence (Fed channel) AC50, cells fed with added oleic acid
# [2] = measured here: cell number channel AC50, cells fed with added oleic acid
SMILES,cell number change [%],AC50 [1],AC50 [2]
O=C(CSc1nnnn1-c1ccc(F)cc1)Nc1ccc(N2CCOCC2)c(Cl)c1,9.97,–,–
COc1ccccc1NC(=O)Oc1ccc(NC(=O)c2ccco2)cc1,1.29,–,–
Cc1cc(-c2ccc(NC(=O)[C@@H]3CCCC[C@@H]3C(=O)O)c(C)c2)ccc1NC(=O)[C@@H]1CCCC[C@@H]1C(=O)O,59.6,–,–
CCC1CCCCN1C(=O)CSc1nnc2nc(C)cc(C)n12 (configuration not stated),0.746,"4.11 µM [falling, partial curve, poor fit]",–
COC(=O)CN1C(=S)N(Cc2ccccc2)C(=O)C1CC(=O)Nc1ccc(OC)cc1 (configuration not stated),38.7,–,"29.1 µM [rising, single point]"
Cc1cc(C)c(S(=O)(=O)N2CCOCC2)c(C)c1N(C)S(=O)(=O)c1ccccc1,-47.4,"1.46 µM [falling, partial curve]","8.2 µM [falling, partial curve]"
COCc1nnc(NC(=O)c2c(-c3c(Cl)cccc3Cl)noc2C)s1,12.6,–,–
COc1cc2cc(CCCOC(=O)c3cccc(Br)c3)oc(=O)c2cc1OC,-24,"0.00517 µM [rising, full curve, poor fit]",–
COc1cccc(NC(=O)CN(C)C(=O)c2ccc3c(c2)CC(c2ccccc2)OC3=O)c1 (configuration not stated),-10.3,"3.26 µM [rising, partial curve, poor fit]",–
O=C1CC(N2CCC(c3nc4ccccc4o3)CC2)C(=O)N1c1cc(Cl)cc(Cl)c1 (configuration not stated),117,"29.1 µM [falling, single point]","6.51 µM [rising, full curve]"
CCOc1ccc(C(=O)CCC(=O)N2CCN(S(=O)(=O)c3cccc(F)c3)CC2)cc1,53,"29.1 µM [rising, single point]","29.1 µM [rising, single point]"
CN1C(=O)N(C)C2(c3ccccc3)N(C)C(=O)NC12c1ccccc1 (configuration not stated),-1.21,"0.164 µM [falling, full curve]",–
O=C1CCCN1c1ccc(S(=O)(=O)NCCOc2ccccc2)cc1,-39.7,"29.1 µM [falling, single point]","32.6 µM [falling, single point]"
CC(=O)c1n[nH]nc1NC(=O)c1ccccc1,-1.18,"0.00461 µM [rising, full curve, poor fit]",–
CC(=O)c1ccc(N2CCN(C(=O)c3ccco3)C(C)C2)c(F)c1 (configuration not stated),–,"0.411 µM [rising, partial curve, poor fit]","0.731 µM [rising, single point]"
CC(C)CC(=O)Nc1ccc2c3c(cccc13)CC2,4.57,"2.06 µM [rising, partial curve, poor fit]",–
COc1cccc(OC)c1C(=O)Nn1c(-c2cccc(C)c2)nc2ccccc2c1=O,5.85,–,–
O=[N+]([O-])c1cccc(-c2nc(-c3cccs3)c(-c3cccs3)[nH]2)c1,-18.4,"29.1 µM [falling, single point]",–
CN(CC(=O)Nc1ccccc1Br)C(=O)COc1ccc2ccccc2c1,-12.4,–,–
Cn1cccc1C(=O)OCC(=O)NC(=O)NC1CCCCC1,21.6,–,–

# Individual results from the entries so far.
# In cell number change [%], O=C1CC(N2CCC(c3nc4ccccc4o3)CC2)C(=O)N1c1cc(Cl)cc(Cl)c1 (configuration not stated) is entered as 117
# In AC50 [2], CCOc1ccc(C(=O)CCC(=O)N2CCN(S(=O)(=O)c3cccc(F)c3)CC2)cc1 is entered as 29.1 µM [rising, single point]

# Additional structures.

SMILES,cell number change [%],AC50 [1],AC50 [2]
O=C(c1coc2ccc(O)cc12)C1CC1,6.74,"9.2 µM [rising, partial curve]",–
C=CCc1ccccc1OCC(O)CN1CCN(c2ccc(OC)cc2)CC1 (configuration not stated),-12.1,"0.164 µM [falling, full curve]",–
O=S(=O)(c1ccc(F)c(Cl)c1)N1CCN(C/C=C/c2ccccc2)CC1,-30,"0.00517 µM [falling, full curve, poor fit]",–
O=C(NCc1cccnc1)NC1(c2ccccc2)CC1,13.2,"0.0184 µM [falling, full curve, poor fit]",–
O=C(NCc1ccc(F)cc1)C1CCCN1S(=O)(=O)c1ccccc1C(F)(F)F (configuration not stated),-2.94,–,–
CCOC(=O)c1ccc(N=C2C(=S)N(c3ccc(C(=O)OCC)cc3)C(=N)N2/N=C/c2ccccc2)cc1,-0.332,"6.51 µM [rising, single point]",–
CCCC1S/C(=N/N=C/c2ccc(OC)cc2)N(Cc2ccccc2)C1=O (configuration not stated),–,"0.58 µM [rising, single point]","0.411 µM [rising, full curve, poor fit]"
COC(=O)[C@@]12CCCCN1[C@H](c1ccc(-c3ccc4c(c3)OCO4)c(OC)c1)[C@@H]1C(=O)N(C)C(=O)[C@@H]12,19.2,"0.184 µM [rising, full curve, poor fit]",–
Cc1cc([N+](=O)[O-])nn1Cn1nc([N+](=O)[O-])cc1C,-36.1,"2.06 µM [falling, partial curve]","29.1 µM [falling, single point]"
COc1ccc(OC(C)C(=O)N2CCOCC2)cc1 (configuration not stated),5.06,–,–
O=C(N/N=C/c1ccco1)c1cccc(NC(=O)c2cccc(Cl)c2)c1,15.1,–,"6.51 µM [rising, single point]"
CCC(C)(C)NC(=O)Cn1c(=O)oc2cc(S(=O)(=O)N3CC(C)CC(C)C3)ccc21 (configuration not stated),-10,"9.2 µM [falling, partial curve]",–
O=C(CC(=O)Nc1ccc(Cl)cc1)N/N=C\c1cccc(F)c1,16.7,–,–
Cc1nn(Cc2ccccc2Cl)c(Cl)c1C(=O)NCCc1ccccc1,34.6,–,"3.26 µM [rising, full curve]"
CS(=O)(=O)N(CCc1ccccc1)CC(=O)NCc1ccco1,-27.2,"18.4 µM [falling, single point]",–
COc1ccc(C(C(=O)NC2CCCC2)N(CC2CCCO2)C(=O)Cc2cccs2)cc1OC (configuration not stated),-2.05,"0.82 µM [falling, full curve, poor fit]",–
Cc1ccc(C)c(S(=O)(=O)N2CCN(CC(=O)NC(=O)NCc3ccco3)CC2)c1,-10.5,–,–
CCOc1ccc(C(=O)NNC(=O)c2cc(S(=O)(=O)N3CCOCC3)ccc2Cl)cc1,–,"32.6 µM [falling, single point]",–
CSc1ccccc1NC(=O)c1ccccc1C,-8.92,"0.103 µM [rising, full curve, poor fit]",–
N#Cc1c(NC(=O)c2cc([N+](=O)[O-])ccc2N2CCOCC2)sc2c1CCCC2,–,"1.3 µM [rising, partial curve]",–

SMILES,cell number change [%],AC50 [1],AC50 [2]
CCOC(=O)C1CSC(CC(=O)Nc2ccc(OC(F)(F)F)cc2)C(=O)N1 (configuration not stated),-38,–,"4.11 µM [falling, full curve, poor fit]"
COc1ccc2[nH]cc(CCN3C(=O)CCC3=O)c2c1,-14.9,"5.8 µM [falling, single point]",–
O=C(NC12CC3CC(CC(C3)C1)C2)c1ccc(-c2ccccc2Cl)o1,-6.14,"1.64 µM [falling, full curve, poor fit]",–
O=C(Nc1nccs1)c1cc(N2CCOCC2)nc2ccccc12,-2.16,"5.17 µM [falling, single point]","6.51 µM [falling, single point]"
O=C(CN1C(=O)c2ccccc2S1(=O)=O)NCCSCc1ccccc1Cl,24.3,"1.64 µM [rising, partial curve, poor fit]","0.366 µM [rising, full curve, poor fit]"
COCCN(CCOC)C(=O)C12CCC(C)(C(=O)C1)C2(C)C (configuration not stated),3.26,–,–
O=C(O)CNS(=O)(=O)c1ccc(C2CCCCC2)cc1,-39.8,"0.651 µM [falling, partial curve, poor fit]","0.0231 µM [falling, full curve]"
O=C(O)c1nn(CCOc2c(Cl)cccc2Cl)c(=O)c2ccccc12,9.52,"20.6 µM [rising, single point]",–
COC(=O)[C@H](C)NC(=O)Nc1ccccc1C(F)(F)F,0.281,–,–
N#CCC(=O)N1CCCCCC1,-6.32,–,–
CC(C)(C)c1ccc(C[C@H](C(=O)O)N2C(=O)c3ccc(C(=O)O)cc3C2=O)cc1,-26.6,"29.1 µM [falling, single point]",–
CC(CCc1ccccc1)NC(=O)c1nnc(Cc2ccc(Cl)cc2)o1 (configuration not stated),42.6,"13 µM [rising, partial curve]","7.31 µM [rising, partial curve]"
CCOC(=O)N1CCN(C(=O)c2cc3cc(Br)ccc3oc2=O)CC1,-10.7,"0.092 µM [rising, full curve, poor fit]",–
CC(=O)NC12CC3CC(C1)CC(C(=O)N1CCN(S(=O)(=O)c4cccc(F)c4)CC1)(C3)C2,30.7,"22.4 µM [rising, single point]",–
N#CCCn1cc(C(=O)Nc2ccc([N+](=O)[O-])cc2)c(-c2cc3ccccc3o2)n1,-23.7,"29.1 µM [falling, partial curve, poor fit]",–
COc1ccc(/C=N/N2CCN(Cc3ccccc3)CC2)cc1,17.2,"29.1 µM [rising, single point]",–
CN1CCN(c2ccc([N+](=O)[O-])cc2NC(=O)c2cccs2)CC1,21.1,"0.259 µM [falling, partial curve, poor fit]",–
CCC(C)c1ccc(OCC(=O)Nc2cccc(C(=O)Nc3ccc(C(=O)O)cc3)c2)cc1 (configuration not stated),–,"29.1 µM [rising, single point]",–
Cc1ccc(CN2C(=O)CCC2C(=O)NCCCN2CCC(C)CC2)cc1 (configuration not stated),-16,"25.9 µM [falling, partial curve]","0.231 µM [falling, full curve]"
Cc1cc(C)n2nc(C(=O)OCC(=O)NC(=O)c3ccccc3)nc2n1,-24,–,–

# Whole records as entered above:
# CCCC1S/C(=N/N=C/c2ccc(OC)cc2)N(Cc2ccccc2)C1=O (configuration not stated) in the list: AC50 [1]: 0.58 µM [rising, single point]; AC50 [2]: 0.411 µM [rising, full curve, poor fit]
# N#CCCn1cc(C(=O)Nc2ccc([N+](=O)[O-])cc2)c(-c2cc3ccccc3o2)n1 in the list: cell number change [%]: -23.7; AC50 [1]: 29.1 µM [falling, partial curve, poor fit]
